Data from PubChem BioAssay AID504467 (National Center for Advancing Translational Sciences (NCATS), 2011).
Among all 330,000 compounds or so, about 7,700 (2.3%) were called active. The inconclusive results got no clear call from the source; some entries with a clear call stand among them for comparison. The call rests on the fitted dose curve; in most records, active means well fitted inhibition curve with a large enough effect; inconclusive means small, poorly fitted or top-dose-only effect, or effect the other way; inactive means flat fitted curve, though single readings scatter. A potency beside an inconclusive call is a rough fit, not a confirmed value.

Test: qHTS screen for small molecules that inhibit ELG1-dependent DNA repair in human embryonic kidney (HEK293T) cells expressing luciferase-tagged ELG1; further: nearly all actives have a fitted effect of over 55% in size
Settings: HEK293T ELG1-luciferase reporter, luminescence, 16 h, DNA damage induced by 5-fluorouridine; series mostly up to 46.1 µM
Outline: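 Luminescence from the luciferase reporter, measured 30 min after ONE-Glo reagent at room temperature, was the read-out. Beforehand, 2,000 cells per well were exposed for 16 hr at 37 °C to 5-fluorouridine together with compound or vehicle.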
Potency means the concentration at half of the fitted maximal effect.

Row | SMILES | Potency
1 | CC(=O)c1ccc(N2CCN(C(=O)c3cccc(Oc4ccccc4)c3)CC2)cc1 | inactive
2 | CCOC(=O)[C@@H]1[C@H]2COc3cc(OC)ccc3[C@H]2N2C(=O)N(c3cccc(F)c3)C(=O)[C@]12C | inconclusive: 14.6 µM [inhibitor, partial curve, poor fit]
3 | Cc1ccccc1NC(=O)COC(=O)c1ccc(S(C)(=O)=O)c([N+](=O)[O-])c1 | inconclusive: 32.6 µM [activator, single point]
4 | COC(=O)/C(C#N)=C/c1c(N2CCCCCC2)nc2c(C)cccn2c1=O | inconclusive: 1.16 µM [activator, single point]
5 | COc1ccccc1C(CCN(Cc1cccs1)C(C)=O)c1ccco1 (centres undefined) | inactive
6 | CCOC(=O)CSc1nc2cc(C(=O)N3CCC(C(N)=O)CC3)ccc2c(=O)n1C1CCCCC1 | inconclusive: 16.4 µM [activator, single point]
7 | O=C(c1ccc(Br)cc1)c1sc(N2CCOCC2)nc1-c1ccccc1 | inconclusive: 29.1 µM [inhibitor, single point]
8 | CC(=O)Nc1ccc2c(c1)N(C(C)=O)c1ccccc1CC2 | active: 20.6 µM
9 | CCOC(=O)c1cc(-c2ccccc2)sc1NC(=S)Nc1cc(C)ccn1 | inconclusive: 29.1 µM [activator, single point]
10 | Cc1ccc(C)c(N2CCN(C(=O)CCc3nc(-c4ccccc4C(F)(F)F)no3)CC2)c1 | inconclusive: 10.3 µM [activator, partial curve]
11 | CCC(=O)Nc1ccc(NC(=S)NC(=O)/C=C/c2ccco2)cc1 | inactive
12 | Cc1nnc(N/N=C/C2CC=CCC2)[nH]c1=O (centres undefined) | inactive
13 | COc1cc(C(F)(F)F)nc2c(Br)c(C(C)(C)C)nn12 | inconclusive: 13 µM [activator, partial curve, poor fit]
14 | Clc1ccc(-c2noc(CCCc3ccccc3)n2)cc1 | inactive
15 | CCOC(=O)COc1ccc(S(=O)(=O)Nc2ccc3c(c2)OCO3)cc1 | inconclusive: 29.1 µM [inhibitor, single point]
16 | Cc1cc(NC(=O)CN2CCN(c3ccccc3O)CC2)no1 | inconclusive: 32.6 µM [inhibitor, partial curve, poor fit]
17 | Cn1nnnc1Sc1ncnc2scc(-c3ccsc3)c12 | inconclusive: 29.1 µM [inhibitor, single point]
18 | O=C(COC(=O)C1(c2ccc(F)cc2)CCCC1)N1CCN(C(=O)c2ccco2)CC1 | inconclusive: 16.4 µM [inhibitor, single point]
19 | O=C(COC(=O)c1ccco1)Nc1ccc2c(c1)OCCO2 | inactive
20 | CC(=O)C1=C(O)C(=O)N(c2ccc(Br)cn2)C1c1ccccc1[N+](=O)[O-] (centres undefined) | inconclusive: 25.9 µM [inhibitor, single point]
21 | O=C(NNc1nccc(C(F)(F)F)n1)Nc1cccc(Cl)c1 | inactive
22 | CCC/C(C#Cc1ccc(N(C)C)cc1)=C1/c2ccccc2C(=O)N1c1ccccc1 | inconclusive: 29.1 µM [activator, single point]
23 | COc1ccc(Cl)cc1NC(=O)CN(C)C(C)C(=O)NC(=O)NC1CCCCC1 (centres undefined) | inconclusive: 18.3 µM [inhibitor, single point]

Row | SMILES | Potency
24 | CC(C)(C)NC(=O)CN(Cc1cccs1)C(=O)c1csnn1 | inactive
25 | COC(=O)c1cc(C(=O)OCC(=O)Nc2ccc(N3CCOCC3)cc2)cc([N+](=O)[O-])c1 | inconclusive: 29.1 µM [activator, single point]
26 | Cc1cc2cc(CN(CC3CCCO3)C(=S)Nc3ccccc3)c(=O)[nH]c2cc1C (centres undefined) | inconclusive: 32.6 µM [inhibitor, single point]
27 | COc1ccc(/C=C/C(=O)N2CCN(c3ccccn3)CC2)cc1 | inconclusive: 29.1 µM [inhibitor, single point]
28 | Fc1ccc(NC(=S)Nc2cccc3ccccc23)cc1 | inconclusive: 29.1 µM [activator, partial curve, poor fit]
29 | CCOCCCNC(=O)/C(C#N)=C/c1ccc(Cl)c([N+](=O)[O-])c1 | inconclusive: 29.1 µM [inhibitor, single point]
30 | CN(C)c1cc(C(F)(F)F)nc(-c2ccccn2)n1 | inactive
31 | COc1ccccc1-c1nc2s/c(=C\c3cccs3)c(=O)n2n1 | inconclusive: 23.1 µM [activator, single point]
32 | COc1cc(/C=C2\CCc3ccccc3C2=O)cc(OC)c1OC | inconclusive: 25.9 µM [inhibitor, single point]
33 | CN(C)S(=O)(=O)Oc1ccsc1C(=O)Nc1ccc(Br)cc1 | inconclusive: 29.1 µM [inhibitor, single point]
34 | COc1cc(OC)cc(-c2cc3ncccc3cn2)c1 | inconclusive: 14.6 µM [activator, partial curve, poor fit]
35 | CCCCCCNC(=O)CC(NS(=O)(=O)c1ccc(OC)cc1)C(C)C (centres undefined) | inactive
36 | O=C(Nc1nc(-c2ccccc2)cs1)c1cccnc1 | inactive
37 | Nc1ccc(Nc2ccccc2)c(Cl)c1 | inconclusive: 23.1 µM [activator, partial curve, poor fit]
38 | CCCn1c(=O)c2ccccc2n2c(SCc3c(C(=O)OCC)oc4ccccc34)nnc12 | inconclusive: 29.1 µM [inhibitor, single point]
39 | CCOc1ccc(NC(=O)C(C)Sc2nccn2C)cc1 (centres undefined) | inconclusive: 23.1 µM [activator, partial curve, poor fit]
40 | O=C(N=NC(=O)c1ccc2c(O)n(C3CCCCC3)c(O)c2c1)c1cccnc1 | inactive
41 | COc1ccc(OC)c(NC(=O)Cn2cccc2)c1 | inconclusive: 16.4 µM [activator, partial curve, poor fit]
42 | CC(C)c1ccc(N2C(=O)C(Cl)=C(N3CCOCC3)C2=O)cc1 | inconclusive: 32.6 µM [activator, partial curve, poor fit]
43 | COc1cccc(-c2nc(CS(=O)(=O)c3ccccc3)no2)c1 | inconclusive: 9.2 µM [activator, partial curve]
44 | CCCCn1c(N)c(N(CC)C(=O)c2cc3c(s2)CCCCC3)c(=O)[nH]c1=O | inactive
45 | COC(=O)c1ccc(OCC(O)CN2CCN(CC(O)COc3ccc(C(=O)OC)cc3)CC2)cc1 (centres undefined) | inconclusive: 20.6 µM [inhibitor, partial curve]
46 | Nc1ccc(Nc2nc(-c3ccncc3)cs2)cc1 | inconclusive: 5.8 µM [activator, single point]

Row | SMILES | Potency
47 | Cc1cccc(N2CC(C(=O)Nc3ccccc3N3CCCC3)CC2=O)c1C (centres undefined) | inactive
48 | CCN(C[C@H]1N[C@@](C)(C(=O)OC)[C@H]2C(=O)N(C)C(=O)[C@@H]12)C(=O)Nc1ccc(F)cc1 | inactive
49 | O=C(Cn1c(=O)oc2cc(S(=O)(=O)N3CCCC3)ccc21)NC1CCCCC1 | inactive
50 | COc1cccc(N/C(N)=N/c2nc(CSc3ccccn3)cc(=O)[nH]2)c1 | inactive
51 | O=C(NNC(=O)C1CC1c1ccccc1)c1ccccc1F (centres undefined) | inactive
52 | Cc1ccc(C(=O)CC(=O)c2ccc(C(C)(C)C)cc2)cc1 | inconclusive: 29.1 µM [activator, single point]
53 | O=C(Nc1nc(-c2ccc3c(c2)OCCO3)cs1)C1CCCC1 | inconclusive: 3.66 µM [activator, full curve]
54 | Cc1cc(=O)n2[nH]c(-c3ccc(Cl)cc3)cc2n1 | inconclusive: 7.31 µM [activator, partial curve]
55 | O=C(NC(=S)N1CCN(Cc2ccc3c(c2)OCO3)CC1)c1ccc(Cl)cc1 | inconclusive: 20.6 µM [inhibitor, partial curve, poor fit]
56 | CCc1cc(C(=O)Nc2ccccc2)cs1 | inconclusive: 10.3 µM [activator, partial curve, poor fit]
57 | COc1ccc(CCNC(=O)c2cc3c(=O)n(C)c4ccccc4c3n2C)c(OC)c1 | inconclusive: 25.9 µM [inhibitor, single point]
58 | Cc1nn2cc(-c3ncc(C(F)(F)F)cc3Cl)cnc2c1Br | inconclusive: 1.46 µM [activator, full curve]
59 | COc1nc(Nc2cccc([N+](=O)[O-])c2)nc(OC)n1 | inconclusive: 29.1 µM [activator, single point]
60 | O=C(Nc1nccs1)c1cc(-c2ccco2)nc2ccccc12 | inconclusive: 23.1 µM [inhibitor, partial curve]
61 | CC(C)c1ccc(-c2nnn(CCC#N)n2)cc1 | inconclusive: 20.6 µM [activator, partial curve]
62 | CC(=Nc1cc(C(=O)c2ccccc2)ccc1N)C1=C(O)CC(C)(C)CC1=O | inconclusive: 29.1 µM [activator, single point]
63 | CCCCCN(C(=O)CCC(=O)OCc1cccc(F)c1)c1c(N)n(CCCC)c(=O)[nH]c1=O | inactive
64 | C=CCSc1n[nH]c(-c2cccs2)n1 | inconclusive: 23.1 µM [activator, single point]
65 | Cc1cccc(N(C)C(=O)c2cc3c(=O)[nH]c4ccc(C)cc4c3s2)c1 | inconclusive: 2.59 µM [inhibitor, partial curve]
66 | COc1ccc(CC(=O)N(C)Cc2ccc(Cl)cc2)cc1S(=O)(=O)N1CCOCC1 | inactive
67 | Oc1cccc(Nc2nc(NCC3CCCO3)c3ccccc3n2)c1 (centres undefined) | active: 20.6 µM
68 | CCC1(N(C(C)=O)c2ccc(OC)cc2)C(=O)c2ccccc2C1=O | inconclusive: 29.1 µM [inhibitor, single point]
69 | CCOc1ccccc1NCc1cc(=O)oc2cc(C)ccc12 | inactive

Structures listed so far that have a nitro group on carbon, in the order listed:
Row | SMILES | Potency
3 | Cc1ccccc1NC(=O)COC(=O)c1ccc(S(C)(=O)=O)c([N+](=O)[O-])c1 | inconclusive: 32.6 µM [activator, single point]
20 | CC(=O)C1=C(O)C(=O)N(c2ccc(Br)cn2)C1c1ccccc1[N+](=O)[O-] (centres undefined) | inconclusive: 25.9 µM [inhibitor, single point]
25 | COC(=O)c1cc(C(=O)OCC(=O)Nc2ccc(N3CCOCC3)cc2)cc([N+](=O)[O-])c1 | inconclusive: 29.1 µM [activator, single point]
29 | CCOCCCNC(=O)/C(C#N)=C/c1ccc(Cl)c([N+](=O)[O-])c1 | inconclusive: 29.1 µM [inhibitor, single point]
59 | COc1nc(Nc2cccc([N+](=O)[O-])c2)nc(OC)n1 | inconclusive: 29.1 µM [activator, single point]
